PubChem BioAssay AID504808 | Drosophila RNAi Screening Center – 2011

Purpose: 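Chromatin factors that keep E2F targets switched off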 (primary screen)
Cell system: Drosophila S2 cells
Knock-down reagent: long dsRNA against Drosophila genes
Detection: 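Dual luciferase plate measurements; E2F-specific signal taken as firefly over Renilla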
Direction: E2F firefly: higher = more E2F reporter activity; Renilla normaliser: higher = more normaliser reporter signal
Rule for the call: 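a knock-down counted as active when the firefly/Renilla E2F signal rose above 50%, a threshold chosen arbitrarily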
The deposit covers about 21,000 reagents; this is a random part of those with a known target gene and a result. Of all reagents, 18 (0.084%) got an active call. 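Raw counts without plate normalisation, one of two replicates; the ratio scores behind the calls were not deposited.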 Unmarked entries are inactive. A plus sign joins genes that one reagent is predicted to hit. No sequences are given here. The record does not give: the amount of reagent, the time to read-out.

Gene | DRSC id | E2F firefly, rep 1 | Renilla normaliser, rep 1
CG30495 (GeneID 246651) | DRSC06703 | 1.45e5 | 4550
COX7AL (GeneID 40995) | DRSC15313 | 1.29e5 | 6585
l(2)27Cb (retired record) (GeneID 48760) | DRSC02758 | 1.26e5 | 5613
Dab (GeneID 39866) | DRSC11140 | 1.71e5 | 8411
CG34210 (GeneID 5740490) | DRSC04579 | 96516 | 4027
Grl43a (GeneID 35705) | DRSC06383 | 1.45e5 | 4967
CG17564 (GeneID 35205) | DRSC02626 | 1.08e5 | 4161
CG32106 (GeneID 317855) | DRSC09219 | 1.34e5 | 4626
Sap47 (GeneID 41938) | DRSC16850 | 75511 | 5302
kar (GeneID 45883) | DRSC14496 | 73500 | 3452
CG13540 (GeneID 37686) | DRSC04182 | 1.11e5 | 4091
Axud1 (GeneID 33419) | DRSC00270 | 1.63e5 | 5131
PTPMT1 (GeneID 42807) | DRSC14235 | 1.16e5 | 5844
TMEM216 (GeneID 41035) | DRSC16378 | 1.29e5 | 5716
Iml1 (GeneID 38176) | DRSC08249 | 68256 | 3029
Rab4 + CG42239 | DRSC05667 | 1.69e5 | 6588
CG13369 (GeneID 31007) | DRSC18481 | 1.01e5 | 5840
Tim23 (GeneID 3355096) | DRSC21240 | 74569 | 4478
Flo1 (GeneID 36726) | DRSC07427 | 80985 | 3478
Mys45A (GeneID 35925) | DRSC07067 | 2458 | 193
Nab2 (GeneID 42897) | DRSC14158 | 86250 | 5647
CG12432 (retired record) (GeneID 32730) | DRSC19455 | 1.51e5 | 7185
bru2 (GeneID 250811) | DRSC01246 | 1.30e5 | 5516
bru2 (GeneID 250811) | DRSC01247 | 1.00e5 | 5647
bru2 (GeneID 250811) | DRSC01249 | 1.17e5 | 5940
bru2 (GeneID 250811) | DRSC01250 | 1.04e5 | 5048
bru2 (GeneID 250811) | DRSC02557 | 89927 | 116
msb1l (GeneID 35254) | DRSC03572 | 76203 | 3344
Hex-t1 (GeneID 117364) | DRSC16701 | 1.03e5 | 6039
betaCOP (GeneID 32820) | DRSC20312 | 1.08e5 | 6437
CG4074 + CG4186 | DRSC11753 | 1.42e5 | 6535
Cp7Fb (GeneID 31785) | DRSC18034 | 1.05e5 | 5573
CG31998 (GeneID 43774) | DRSC17137 | 1868 | 940
CG31998 (GeneID 43774) | DRSC17138 | 43643 | 3622
CG3339 (GeneID 43295) | DRSC13821 | 79390 | 2368
CG3339 (GeneID 43295) | DRSC15479 | 1.11e5 | 6429
Odc2 (GeneID 35767) | DRSC07483 | 1.44e5 | 5418
Ppt1 (GeneID 31805) | DRSC17806 | 1.25e5 | 5839
mfr (GeneID 39016) | DRSC10543 | 98024 | 4213
ATPsynD (GeneID 42291) | DRSC14093 | 1.03e5 | 8467
Ca-alpha1D (GeneID 34950) | DRSC03284 | 71097 | 3675
PIG-T (GeneID 31772) | DRSC17774 | 49822 | 4247
RpLP0-like (GeneID 36058) | DRSC06424 | 3173 | 261
Atg4a (GeneID 33283) | DRSC00656 | 88203 | 3471
Plap (GeneID 43978) | DRSC00678 | 89457 | 4511
GMF (GeneID 34963) | DRSC01928 | 76210 | 2812
Hr96 (GeneID 42993) | DRSC16707 | 81256 | 3983
Scp1 (GeneID 3355102) | DRSC20799 | 78972 | 2819
Scp1 (GeneID 3355102) | DRSC20803 | 80767 | 3452
Scp1 (GeneID 3355102) | DRSC20806 | 1.38e5 | 6653
crp (GeneID 34956) | DRSC03515 | 83739 | 4365
Cad89D (GeneID 42006) | DRSC15022 | 94729 | 4878
CG15635 (GeneID 33665) | DRSC00470 | 1.55e5 | 5176
Gr59f (GeneID 37726) | DRSC04499 | 1.15e5 | 4521
CG1647 (GeneID 43401) | DRSC15134 | 1957 | 868
CG18048 (GeneID 40782) | DRSC12573 | 1.36e5 | 6994
CG8773 (GeneID 41634) | DRSC16444 | 78297 | 3647
CG17329 (GeneID 34958) | DRSC01926 | 97201 | 4004
140up (GeneID 41720) | DRSC12634 | 78194 | 3622
CG8117 (GeneID 32499) | DRSC20082 | 1.46e5 | 6089
Scgdelta (GeneID 31129) | DRSC18544 | 1.11e5 | 5827
rho-6 (GeneID 34640) | DRSC02588 | 1.00e5 | 4285
Spred (GeneID 36643) | DRSC05976 | 172 | 34
CG14613 (GeneID 33133) | DRSC20625 | 1.41e5 | 5264
CG11147 (GeneID 33803) | DRSC02129 | 1.41e5 | 5212
Tnpo (GeneID 38721) | DRSC11309 | 66410 | 4013
CG17327 (GeneID 41598) | DRSC15225 | 1.14e5 | 5216
CG31688 + CG31687 | DRSC02116 | 97777 | 3832
fws (GeneID 35054) | DRSC02969 | 82981 | 3653
Chc (GeneID 32537) | DRSC20229 | 7578 | 728
CG12391 (GeneID 36170) | DRSC06147 | 2831 | 170
CG2321 (GeneID 43471) | DRSC15439 | 1805 | 1060
CG13216 (GeneID 36181) | DRSC06338 | 96275 | 4472
CG31288 (GeneID 318664) | DRSC14667 | 1.17e5 | 7296
REPTOR (GeneID 42930) | DRSC14626 | 67483 | 3250
mthl5 (GeneID 41438) | DRSC16155 | 1.29e5 | 6244
CG8738 (GeneID 35855) | DRSC07256 | 1.57e5 | 4849
CG8850 (GeneID 36331) | DRSC07287 | 1.01e5 | 4350
IntS3 (GeneID 3355010) | DRSC21215 | 1.46e5 | 6643
Nf1 (GeneID 43149) | DRSC16758 | 1788 | 876
Pdzd8 (GeneID 32157) | DRSC19355 | 1.20e5 | 6615
CG15446 (GeneID 33088) | DRSC20518 | 1.31e5 | 6963
CG11110 (GeneID 37337) | DRSC06037 | 92970 | 4233
CG43102 (GeneID 42137) | DRSC14797 | 96126 | 4580
CG43102 (GeneID 42137) | DRSC16239 | 1.01e5 | 4499
Spt7 (GeneID 32766) | DRSC19997 | 1.51e5 | 6775
rk (GeneID 34819) | DRSC03602 | 97132 | 4326
park + Targ3 | DRSC11617 | 82146 | 3482
FucTC (GeneID 3355171) | DRSC20966 | 86961 | 2640
bun (GeneID 34665) | DRSC01253 | 1.22e5 | 5911
bun (GeneID 34665) | DRSC01255 | 1.32e5 | 6170
bun (GeneID 34665) | DRSC03500 | 52039 | 2997
CG43980 (GeneID 2768995) | DRSC11500 | 84834 | 4552
CG43980 (GeneID 2768995) | DRSC11646 | 1.36e5 | 6198
CG5104 (GeneID 40280) | DRSC11765 | 1.45e5 | 8148
dsx-c73A (GeneID 39831) | DRSC09435 | 1.31e5 | 3823
dsx-c73A (GeneID 39831) | DRSC09914 | 1.69e5 | 9431
dsx-c73A (GeneID 39831) | DRSC10429 | 1.69e5 | 7326
CG15712 (GeneID 36843) | DRSC06583 | 1.38e5 | 4888
Marc (GeneID 36014) | DRSC06614 | 1.59e5 | 6002
ppk17 (GeneID 35006) | DRSC02252 | 99269 | 4313
MAPk-Ak2 (GeneID 44573) | DRSC18678 | 85423 | 4937
sktl (GeneID 37356) | DRSC04715 | 70088 | 3621
CG2926 (GeneID 40676) | DRSC12321 | 72422 | 3671
S-Lap8 (GeneID 36844) | DRSC06870 | 70328 | 3218
CG6656 (GeneID 42576) | DRSC16085 | 73111 | 3509
CG17917 (GeneID 40778) | DRSC12570 | 1.25e5 | 6353
